± gives the standard deviation. The list shows a part of the results, in another mix than the full data. The uncertainty is large for many entries.
Test system: MIWI (PIWIL1) piRISC loaded with L1MC piRNA (30 nt)
Experiment: pre-steady-state target cleavage rate (min^-1); MIWI and MILI are mouse PIWI proteins and EfPiwi is from a freshwater sponge; tags in brackets are library labels; higher = faster piRNA-guided slicing of the target
Settings: guide: L1MC piRNA 5'p-UAACUAAAUACUAUGCAAGCUGUAGGUCCU; auxiliary factor: none (no GTSF1)
Summary of the method: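 Cleave-'n-Seq used a transcribed, DNA-blocked target RNA library at 0.1 nM and active affinity-purified piRISC with one synthetic guide at 1 nM, with or without 500 nM GTSF1 partner protein, in HEPES–potassium acetate buffer at 33 °C for 0–8 or 0–960 min. Uncleaved targets were sequenced and normalised to depth and to weakly complementary targets, and three trials were pooled with k3 capped at 0.0001 min^-1. The pre-steady-state cleavage rate was estimated by a burst-and-steady-state fit.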

| Sequence | pre-steady-state target cleavage rate |
| --- | --- |
| UCCUGGUUCAGCUUGCAUAGUAUUUAGUAA | 0.0354 ± 0.008 |
| UCCUGGUACAGCUUGCAUUGUAUUUUCAAA | 0.00102 ± 0.0061 |
| UCCUGGAUGUCGUUGCUUACUAUUUAGUUA | 0.000552 ± 0.015 |
| UCCUCCUACAGCUUGCAUUCUAUUUACAAA | 0.00069 ± 0.01 |
| UCCUGGAUCAGCUUGGAUUGUAUUUAGUUA | 0.000807 ± 0.011 |
| UCCUGGAUGUCCUUGCGAUAGUAUUUAGUUA | 0.00113 ± 0.006 |
| UCCUGGAUGUCGUUGCAUAGUAUAAAGUUA | 0.00189 ± 0.0047 |
| UCCUGGAUGUCGAAGCAUGGUAUUUAGUUA | 0.0014 ± 0.0044 |
| UCCUGGAUGAGCUUGCGAUAGUAUUUAGUUA | 0.000333 ± 0.0082 |
| UCCUGGAUGUCGUUGCAUACAUUUUAGUUA | 0.000116 ± 0.028 |
| UCCUGGAUGUCGAAGCAAAGUAAUUAGUUA | 0.000499 ± 0.014 |
| UCCUGCUACAGCUUGCAAUGUAUUUAGAAA | 0.00119 ± 0.0052 |
| UCCUGGAUCAGCUUGCAUACAUUUUUCAAA | 0.000639 ± 0.0092 |
| UCCUGGUACAGCUUGGUAAGUAUUUACAAA | 0.000853 ± 0.01 |
| UCCUGGAUCCAGCUUGCAUAGUAUUUAGUUA | 0.0546 ± 0.016 |
| UCCUGGAUGUCGAUGCAUAGUUUUAGUUA | 0.00112 ± 0.0058 |
| UCCUGGAUGAGCUUGCAUAUGUAUUUAGUUA | 0.000687 ± 0.014 |
| UCCUGGAUCAGCUUCCAUUGUAUUUAGUUA | 0.00114 ± 0.0074 |
| UCCUGGAUGUCCUUGCAUAUAUUUAGUUA | 0.00158 ± 0.0049 |
| UCCUGGAACAGCUUCGUUAGUAUUUAGAAA | 0.000672 ± 0.0098 |
| UCCUGGAAACAGCUUGCAUAGUAUUUAGUUA | 0.0675 ± 0.012 |
| UCCUGGAUGUCGAAGCUAAGUAUUUAGUUA | 0.00059 ± 0.0078 |
| UCCUGGAUGUCGUUGCUAAGUAUUUAGUUA | 0.000252 ± 0.0093 |
| UCCUGGAUGUGCUUGCAUAUGUAUUUAGUUA | 0.000984 ± 0.01 |

Another view of part of the listing above:
Sequence,pre-steady-state target cleavage rate
UCCUGGAUGUCGUUGCUUACUAUUUAGUUA,0.000552 ± 0.015
UCCUGGAUGUCCUUGCAUAUAUUUAGUUA,0.00158 ± 0.0049

Reference: the supplement of paper PMC10338343
